Results published in the supplement of paper PMC12067093, “Discovery and optimisation of a covalent ligand for TRIM25 and its application to targeted protein ubiquitination” (Chemical Science, 2025).
This is one part of the list.

Compound: Cc1cc(ccc1-c1ccccc1)C(=O)N1CCCN(CC1)C(=O)CCl [compound 10]
Test: probe-labelled cysteine peptide fold change vs DMSO (competition) (log2 fold change); higher = less target engagement (more negative = stronger competition)
Settings: 50 µM; THP-1; incubation time: 4 h
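Further: competitive profiling in live THP-1 cells: cysteine peptides tagged with an iodoacetamide desthiobiotin (IA-DTB) probe, intensity after compound treatment relative to DMSO-treated cells.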

Row | Target | probe-labelled cysteine peptide fold change
1 | DIAPH2_O60879_884_TTLLHFIADICEEK (UniProt O60879) | 0.0196
2 | DHX36_Q9H2U1_836_AVICAGLYPK (UniProt Q9H2U1) | -0.155
3 | DIDO1_Q9BTC0_288+296_CEEWFHGDCVGISEAR (UniProt Q9BTC0) | -0.324
4 | DHX30_Q7L2E3_118_QAAAAACQLFK (UniProt Q7L2E3) | -0.108
5 | DMXL1_Q9Y485_2781_MFEWGHSQQITCFR (UniProt Q9Y485) | 0.112
6 | DIS3L_Q8TF46_482_GCEDVDDTLSVR (UniProt Q8TF46) | -0.0798
7 | DNAJA1_P31689_177_IHQIGPGMVQQIQSVCMECQGHGER (UniProt P31689) | 0.253
8 | DHX36_Q9H2U1_135_NTPCSENK (UniProt Q9H2U1) | -0.294
9 | DNMT1_P26358_1125_SQACEPSEPEIEIK (UniProt P26358) | -0.443
10 | DNAJC2_Q99543_140_EGDNDYFTCITK (UniProt Q99543) | -0.1
11 | DKC1_O60832_131_VTGCLIVCIER (UniProt O60832) | 0.266
12 | DNAJA2_O60884_280_IGLVEALCGFQFTFK (UniProt O60884) | 0.439
13 | DICER1_Q9UPY3_801_CFGILTAKPIPQIPHFPVYTR (UniProt Q9UPY3) | 0.0559
14 | DIAPH3_Q9NSV4_663_IRPHEMTENCFWIK (UniProt Q9NSV4) | -0.468
15 | DMXL2_Q8TDJ6_62_HGNIQVSCVECSNQQGR (UniProt Q8TDJ6) | -0.602
16 | DIS3L2_Q8IYB7_396_DLDDALSCKPLADGNFK (UniProt Q8IYB7) | -0.141
17 | DIS3L_Q8TF46_203_AAHELCDSILQSR (UniProt Q8TF46) | 0.0964
18 | DHX29_Q7Z478_1019_VPLEELCLHIMK (UniProt Q7Z478) | -0.0374
19 | DNAJC16_Q9Y2G8_744_GKPSCGLGSRPIK (UniProt Q9Y2G8) | -0.523

Row | Target | probe-labelled cysteine peptide fold change
20 | DIAPH1_O60610_267_LLSALCILPQPEDMNER (UniProt O60610) | 0.011
21 | DNMT1_P26358_691_CPNMAMK (UniProt P26358) | -0.52
22 | DNASE1L1_P49184_187_DVILLGDFNADCASLTK (UniProt P49184) | 0.14
23 | DLAT_P10515_586_NFSAIINPPQACILAIGASEDK (UniProt P10515) | 0.123
24 | DHX57_Q6P158_598_VANIICTQPR (UniProt Q6P158) | 0.00446
25 | DNASE2_O00115_327_GGGTLCAQLPALWK (UniProt O00115) | 0.06
26 | DNAJA2_O60884_308_VIEPGCVR (UniProt O60884) | 0.0681
27 | DLGAP5_Q15398_696_SSIEDAQCPGLPDLIEENHVVNK (UniProt Q15398) | -0.194
28 | DNAJC11_Q9NVH1_38_LCMLYHPDK (UniProt Q9NVH1) | -0.135
29 | DNAJC7_Q99615_317_KLDDAIEDCTNAVK (UniProt Q99615) | 0.0179
30 | DNAJB1_P25685_179_VSLEEIYSGCTK (UniProt P25685) | 0.255
31 | DNAJC13_O75165_820_YECLAEEIK (UniProt O75165) | 0.687
32 | DIEXF_Q68CQ4_311_HVYCLHVINHILK (UniProt Q68CQ4) | 0.107
33 | DNAJC7_Q99615_164_KVVFCMDR (UniProt Q99615) | -0.2
34 | DNAJA1_P31689_271_RGEDLFMCMDIQLVEALCGFQK (UniProt P31689) | 0.385
35 | DNMT1_P26358_686_QACQER (UniProt P26358) | 0.658
36 | DLG4_P78352_562_FGSCVPHTTRPK (UniProt P78352) | -0.126
37 | DIAPH1_O60610_1027_MTLLHFLAELCENDYPDVLKFPDELAHVEK (UniProt O60610) | -0.441
